Here are results for 30 sequences from article PMC7862700.

Protein sequences, listed by entry. Tags and fused reporters are not part of them. Lines headed by an entry give the natural chain unless they say otherwise; changes in a name come on top.
UniProt Q01892: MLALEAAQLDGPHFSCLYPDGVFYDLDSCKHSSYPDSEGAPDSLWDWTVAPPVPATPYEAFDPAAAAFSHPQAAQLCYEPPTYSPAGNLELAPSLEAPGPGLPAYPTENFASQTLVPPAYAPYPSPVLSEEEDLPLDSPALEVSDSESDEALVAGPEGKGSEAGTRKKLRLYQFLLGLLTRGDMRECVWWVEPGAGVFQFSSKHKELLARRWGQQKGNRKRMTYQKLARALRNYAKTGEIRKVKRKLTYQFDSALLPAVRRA
UniProt P41161: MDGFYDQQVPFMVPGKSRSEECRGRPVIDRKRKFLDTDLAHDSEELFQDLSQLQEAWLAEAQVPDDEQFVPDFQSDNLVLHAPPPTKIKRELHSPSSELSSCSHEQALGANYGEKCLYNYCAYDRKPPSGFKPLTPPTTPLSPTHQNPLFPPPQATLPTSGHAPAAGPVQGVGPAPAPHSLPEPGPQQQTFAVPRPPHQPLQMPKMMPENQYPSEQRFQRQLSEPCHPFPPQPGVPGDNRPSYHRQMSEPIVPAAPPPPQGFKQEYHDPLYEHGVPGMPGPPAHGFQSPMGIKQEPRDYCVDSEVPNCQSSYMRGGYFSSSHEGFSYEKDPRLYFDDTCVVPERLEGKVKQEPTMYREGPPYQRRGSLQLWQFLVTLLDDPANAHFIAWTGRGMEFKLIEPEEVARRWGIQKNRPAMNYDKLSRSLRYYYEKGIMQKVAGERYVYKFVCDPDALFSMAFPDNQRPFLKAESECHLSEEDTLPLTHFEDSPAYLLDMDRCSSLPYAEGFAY
UniProt Q99607: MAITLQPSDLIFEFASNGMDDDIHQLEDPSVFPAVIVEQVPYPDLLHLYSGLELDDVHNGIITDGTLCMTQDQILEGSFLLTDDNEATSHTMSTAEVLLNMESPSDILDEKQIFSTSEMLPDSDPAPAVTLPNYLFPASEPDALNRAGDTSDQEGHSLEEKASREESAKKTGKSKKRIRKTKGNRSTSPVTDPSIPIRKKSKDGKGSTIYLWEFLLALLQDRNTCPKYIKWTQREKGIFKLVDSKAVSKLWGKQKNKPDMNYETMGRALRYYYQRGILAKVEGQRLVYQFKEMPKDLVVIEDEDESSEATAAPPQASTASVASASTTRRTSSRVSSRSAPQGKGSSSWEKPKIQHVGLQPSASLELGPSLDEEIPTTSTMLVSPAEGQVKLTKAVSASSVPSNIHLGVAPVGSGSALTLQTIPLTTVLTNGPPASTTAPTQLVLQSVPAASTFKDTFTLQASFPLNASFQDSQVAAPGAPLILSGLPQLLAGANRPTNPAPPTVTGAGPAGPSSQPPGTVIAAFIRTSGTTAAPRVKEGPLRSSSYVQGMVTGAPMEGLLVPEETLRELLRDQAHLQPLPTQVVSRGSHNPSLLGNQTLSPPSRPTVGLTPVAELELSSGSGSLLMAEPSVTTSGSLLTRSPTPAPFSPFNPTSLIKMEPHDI

The entries are a selection whose mix differs from that of the whole data set. At the low end of the ranking the order means little.

Targets include SPIB (UniProt Q01892); ETV5 (UniProt P41161); ELF4 (UniProt Q99607).
Common to all, as to experiment: DAPPL (digital affinity profiling via proximity ligation, sequencing)
Holding throughout (conditions): 10 mM Tris-HCl pH 7.5, 50 mM NaCl, 1 mM DTT, 4% glycerol, room temperature, 30 min; GST-TFs on glutathione beads, 16-mer random dsDNA library, 0.1% …; high values mean tight binding; double strand, one strand shown; scale: fold enrichment (6-mer frequency, TF over GST control)

The next experiment deals with T1, FLI1 (UniProt Q01543).
T1 sequence: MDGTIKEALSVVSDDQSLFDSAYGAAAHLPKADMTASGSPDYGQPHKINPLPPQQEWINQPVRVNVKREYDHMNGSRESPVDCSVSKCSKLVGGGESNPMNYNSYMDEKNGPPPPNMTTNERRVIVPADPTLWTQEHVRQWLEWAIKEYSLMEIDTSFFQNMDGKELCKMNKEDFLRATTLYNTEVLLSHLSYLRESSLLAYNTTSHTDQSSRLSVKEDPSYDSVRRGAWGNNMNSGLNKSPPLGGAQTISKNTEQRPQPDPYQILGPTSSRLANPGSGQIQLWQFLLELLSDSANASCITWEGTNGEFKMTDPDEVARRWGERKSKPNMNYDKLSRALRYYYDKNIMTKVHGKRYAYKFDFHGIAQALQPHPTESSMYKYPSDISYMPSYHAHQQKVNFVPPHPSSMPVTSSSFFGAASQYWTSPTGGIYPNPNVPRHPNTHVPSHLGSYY

The next experiment deals with T2, EHF (UniProt Q9NZC4).
T2 sequence: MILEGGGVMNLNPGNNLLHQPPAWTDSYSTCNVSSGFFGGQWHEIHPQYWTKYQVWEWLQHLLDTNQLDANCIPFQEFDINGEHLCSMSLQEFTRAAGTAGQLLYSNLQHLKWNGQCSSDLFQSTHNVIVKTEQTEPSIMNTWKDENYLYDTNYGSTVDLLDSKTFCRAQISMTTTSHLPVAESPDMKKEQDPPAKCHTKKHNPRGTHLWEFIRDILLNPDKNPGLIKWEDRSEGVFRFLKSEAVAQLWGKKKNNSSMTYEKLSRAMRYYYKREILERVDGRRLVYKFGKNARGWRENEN

A further experiment concerns the target T3, ETV2 (UniProt O00321).
T3 sequence: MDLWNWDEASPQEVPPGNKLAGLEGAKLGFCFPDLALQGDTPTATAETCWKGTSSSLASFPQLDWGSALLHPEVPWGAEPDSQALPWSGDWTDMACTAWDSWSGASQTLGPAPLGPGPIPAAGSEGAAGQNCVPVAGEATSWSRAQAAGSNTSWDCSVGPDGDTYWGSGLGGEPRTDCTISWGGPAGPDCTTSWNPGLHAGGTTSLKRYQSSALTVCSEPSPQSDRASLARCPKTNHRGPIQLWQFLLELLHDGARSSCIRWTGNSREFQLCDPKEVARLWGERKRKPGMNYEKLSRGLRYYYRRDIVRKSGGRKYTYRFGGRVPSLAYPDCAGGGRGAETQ

A further experiment deals with T4, ETV3L (UniProt Q6ZN32).
T4 sequence: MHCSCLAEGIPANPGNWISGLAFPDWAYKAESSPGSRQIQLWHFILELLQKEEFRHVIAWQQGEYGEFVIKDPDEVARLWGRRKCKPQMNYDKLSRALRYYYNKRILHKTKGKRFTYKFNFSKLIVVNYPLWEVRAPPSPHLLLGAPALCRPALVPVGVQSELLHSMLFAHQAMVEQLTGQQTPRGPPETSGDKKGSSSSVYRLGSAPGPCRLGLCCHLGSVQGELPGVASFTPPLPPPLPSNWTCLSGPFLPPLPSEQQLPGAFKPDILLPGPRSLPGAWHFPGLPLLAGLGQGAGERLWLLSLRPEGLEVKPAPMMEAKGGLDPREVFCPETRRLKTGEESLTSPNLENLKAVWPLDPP

As for GTGCAG, the binding signal amounted to 0.604 with FLI1; 0.75 with EHF; 0.802 in the experiment with SPIB; 0.735 in the experiment with ETV5; 0.791 with ELF4; 0.738 with ETV2. The binding signal with ETV3L amounted to 0.718.
On to GGCAAA, for which the binding signal is 0.895 in the experiment with FLI1; 0.916 with EHF; 0.946 with SPIB; 0.941 with ETV5; 0.937 with ELF4; 0.913 with ETV2. In addition, the binding signal with ETV3L worked out at 0.906.
For the sequence GTAGCC, the binding signal turned out to be 0.937 in the experiment with FLI1; 0.873 with EHF; 0.885 in the experiment with SPIB; 0.884 with ETV5; 0.956 in the experiment with ELF4; 0.972 with ETV2. Moreover, the binding signal in the experiment with ETV3L is 0.935.
As to GAATCG, the binding signal is 0.619 with FLI1; 0.57 with EHF; 0.616 with SPIB; 0.684 in the experiment with ETV5; 0.574 in the experiment with ELF4; 0.476 in the experiment with ETV2. The binding signal in the experiment with ETV3L came out at 0.605.
For the sequence AGGGGA, the binding signal amounted to 0.582 with FLI1; 0.592 with EHF; 0.61 with SPIB; 0.658 in the experiment with ETV5; 0.555 with ELF4; 0.643 in the experiment with ETV2. This sequence also had a binding signal in the experiment with ETV3L of 0.54.
With CAAGAG, the binding signal in the experiment with FLI1 stood at 0.794; with EHF it was 0.82; in the experiment with SPIB, 0.645; with ETV5, 0.732; with ELF4, 0.777; in the experiment with ETV2, 0.766. In the experiment with ETV3L, this sequence returned a binding signal of 0.763.
Take GGAGTG: the binding signal with FLI1 worked out at 0.384; with EHF it was 0.433; in the experiment with SPIB, 0.471; with ETV5 it was 0.429; with ELF4, 0.369; in the experiment with ETV2, 0.383. The same sequence returned a binding signal with ETV3L of 0.451.
For CAGAGA, the binding signal with FLI1 is 0.636; with EHF, 0.633; with SPIB, 0.564; with ETV5 it was 0.644; with ELF4, 0.636; with ETV2, 0.657. Further, the binding signal with ETV3L was found to be 0.643.
As for GACAGC, the binding signal is 0.774 with FLI1; 0.844 in the experiment with EHF; 0.803 with SPIB; 0.788 with ETV5; 0.753 with ELF4; 0.77 with ETV2. In the experiment with ETV3L, this sequence registered a binding signal of 0.791.
GCAAGT: the binding signal in the experiment with FLI1 turned out to be 0.843; with EHF, 0.817; with SPIB, 0.819; in the experiment with ETV5, 0.806; with ELF4, 0.824; in the experiment with ETV2 it was 0.735. Moreover, the binding signal in the experiment with ETV3L was 0.852.
In the case of GAGACA, the binding signal with FLI1 was found to be 0.356; with EHF, 0.385; with SPIB it was 0.376; with ETV5, 0.394; in the experiment with ELF4 it was 0.387; with ETV2 it was 0.431. The sequence further gave a binding signal with ETV3L of 0.364.
GCGGGA: the binding signal came out at 0.42 in the experiment with FLI1; 0.377 with EHF; 0.362 in the experiment with SPIB; 0.382 with ETV5; 0.364 with ELF4; 0.344 in the experiment with ETV2. For the same sequence, the binding signal in the experiment with ETV3L turned out to be 0.378.
For GTGATA, the binding signal with FLI1 came out at 0.718; with EHF it was 0.656; in the experiment with SPIB, 0.713; with ETV5, 0.669; with ELF4 it was 0.69; with ETV2, 0.587. In the experiment with ETV3L, the binding signal came to 0.695.
Consider CGGACT, for which the binding signal in the experiment with FLI1 stood at 0.846; in the experiment with EHF, 0.91; with SPIB, 0.876; in the experiment with ETV5, 0.853; with ELF4, 0.859; with ETV2 it was 0.82. The binding signal in the experiment with ETV3L stood at 0.885.
As to AAGTGA, the binding signal with FLI1 was 0.604; with EHF, 0.722; with SPIB, 0.598; with ETV5, 0.655; with ELF4 it was 0.678; with ETV2, 0.624. In addition, the binding signal in the experiment with ETV3L came out at 0.648.
Turning to GAGGAG, the binding signal amounted to 0.221 in the experiment with FLI1; 0.196 with EHF; 0.202 with SPIB; 0.204 with ETV5; 0.218 with ELF4; 0.179 with ETV2. This sequence also had a binding signal with ETV3L of 0.224.
In the case of TGGGGG, the binding signal with FLI1 came to 0.777; with EHF, 0.71; with SPIB it was 0.783; in the experiment with ETV5 it was 0.666; with ELF4 it was 0.684; in the experiment with ETV2 it was 0.839. Also, in the experiment with ETV3L, the binding signal amounted to 0.833.
Take GTGGGG: the binding signal amounted to 0.561 with FLI1; 0.566 with EHF; 0.603 in the experiment with SPIB; 0.559 in the experiment with ETV5; 0.606 with ELF4; 0.444 with ETV2. Further, the binding signal with ETV3L turned out to be 0.622.
As for GTCATG, the binding signal came to 0.794 in the experiment with FLI1; 0.791 with EHF; 0.778 with SPIB; 0.92 in the experiment with ETV5; 0.885 with ELF4; 0.809 in the experiment with ETV2. Moreover, in the experiment with ETV3L, the binding signal came to 0.867.
Turning to CCCGGG, the binding signal with FLI1 stood at 0.847; with EHF, 0.827; with SPIB, 0.815; with ETV5, 0.794; with ELF4, 0.8; with ETV2, 0.817. In addition, the binding signal with ETV3L turned out to be 0.745.
As to ACGTGA, the binding signal with FLI1 is 0.285; with EHF, 0.289; with SPIB it was 0.251; with ETV5 it was 0.263; in the experiment with ELF4, 0.253; with ETV2, 0.258. Also, in the experiment with ETV3L, the binding signal came out at 0.291.
As for GCATGA, the binding signal in the experiment with FLI1 was 0.856; in the experiment with EHF, 0.792; with SPIB, 0.883; in the experiment with ETV5 it was 0.831; in the experiment with ELF4, 0.884; in the experiment with ETV2, 0.811. Moreover, the binding signal with ETV3L was found to be 0.827.
For the sequence CGCCAG, the binding signal is 0.726 in the experiment with FLI1; 0.608 with EHF; 0.679 in the experiment with SPIB; 0.635 in the experiment with ETV5; 0.688 in the experiment with ELF4; 0.711 in the experiment with ETV2. The same sequence had a binding signal in the experiment with ETV3L of 0.689.
Turning to AGGCAA, the binding signal stood at 0.796 with FLI1; 0.75 with EHF; 0.709 with SPIB; 0.708 with ETV5; 0.737 with ELF4; 0.707 in the experiment with ETV2. In the experiment with ETV3L, this sequence came in with a binding signal of 0.747.
CACGGT: the binding signal in the experiment with FLI1 was 0.939; with EHF it was 0.956; with SPIB it was 0.958; in the experiment with ETV5 it was 0.893; with ELF4, 0.931; in the experiment with ETV2, 0.819. The sequence further yielded a binding signal with ETV3L of 0.919.
Turning to GGTGGA, the binding signal is 0.537 with FLI1; 0.632 with EHF; 0.588 in the experiment with SPIB; 0.677 in the experiment with ETV5; 0.541 in the experiment with ELF4; 0.433 in the experiment with ETV2. The sequence also displayed a binding signal in the experiment with ETV3L of 0.599.
As for AGTCCG, the binding signal is 0.586 in the experiment with FLI1; 0.577 in the experiment with EHF; 0.597 with SPIB; 0.583 with ETV5; 0.52 in the experiment with ELF4; 0.549 in the experiment with ETV2. In addition, the binding signal in the experiment with ETV3L was found to be 0.606.
With AGATCG, the binding signal in the experiment with FLI1 turned out to be 0.483; with EHF it was 0.434; with SPIB it was 0.439; with ETV5 it was 0.501; with ELF4, 0.507; with ETV2, 0.504. The sequence further came in with a binding signal in the experiment with ETV3L of 0.492.
On to GATTGG, for which the binding signal is 0.939 in the experiment with FLI1; 0.853 with EHF; 0.983 with SPIB; 0.792 with ETV5; 0.91 in the experiment with ELF4; 0.863 in the experiment with ETV2. Further, the binding signal with ETV3L was found to be 0.91.
For CGAGTC, the binding signal with FLI1 turned out to be 0.497; in the experiment with EHF, 0.553; with SPIB it was 0.513; in the experiment with ETV5, 0.493; in the experiment with ELF4, 0.517; with ETV2, 0.448. For the same sequence, the binding signal with ETV3L was determined as 0.532.
